Test results: PubChem BioAssay AID1487 (National Center for Advancing Translational Sciences (NCATS), 2009)
The list shows a part of the results. These are further read-outs of the screen, such as a control signal, another cell line or another target. No call is given for them. The list favours compounds with an active or inconclusive main result. Potencies come from curve fits of mixed quality, noted in brackets.

Assay: qHTS Assay for Modulators of Lamin A Splicing
Details: HeLa LMNA splicing GFP/RFP minigene ratio, 48 h
Procedure, shortened: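 S3 HeLa stable clones carrying a lamin A-EGFP splicing minigene plus DsRed2 were seeded at 600 cells/well in Opti-MEM with 2% FBS, pin-dosed and incubated 48 h at 37°C. Acumen cytometry (488 nm) gave the GFP/RFP total-intensity ratio.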

[1] = measured here: RFP viability control channel
[2] = measured here: GFP splicing reporter channel

SMILES	AC50 [1]	AC50 [2]
CCCNC(=S)N(Cc1ccccc1)Cc1nc2ccccc2c(=O)[nH]1	12.6 µM [rising, partial curve]	–
O=C1N/C(=N\N=C\c2ccccn2)SC1Cc1cccc(SC(F)F)c1 (stereo not given)	7.94 µM [falling, partial curve]	4.47 µM [falling, full curve]
Cc1cccc2nc(-c3cccc(NC(=O)c4ccc(Cl)cc4)c3)cn12	17.8 µM [rising, single point]	–
O=C(OCc1cccs1)c1ccccc1NS(=O)(=O)c1ccc2c(c1)OCCO2	35.5 µM [rising, single point]	–
COc1ccc(C(=O)Nc2ccccc2-c2nnn(CC(=O)N3CCOCC3)n2)cc1	–	5.62 µM [rising, partial curve]
O=C(Oc1ccc(-c2cnc3ccccc3n2)cc1)c1cc([N+](=O)[O-])ccc1Cl	–	35.5 µM [rising, single point]
Fc1cccc(Nc2ncnc3[nH]ncc23)c1	–	35.5 µM [falling, partial curve, poor fit]
CCCCCCCCCCOC(=O)C[N+](C)(C)C/C=C(/C)Cl	35.5 µM [rising, single point]	20 µM [rising, partial curve, poor fit]
CC(NC(=O)CN(c1cccc(C(F)(F)F)c1)S(=O)(=O)c1ccc(Cl)c([N+](=O)[O-])c1)c1ccccc1 (stereo not given)	–	25.1 µM [falling, partial curve, poor fit]
CCOC(=O)C1=C(N)Oc2cc(O)ccc2C1c1cccnc1 (stereo not given)	12.6 µM [rising, partial curve, poor fit]	5.62 µM [rising, partial curve, poor fit]
Cc1cccc(OCC(=O)NC(=S)Nc2ccccc2N2CCOCC2)c1	17.8 µM [rising, single point]	3.98 µM [rising, partial curve, poor fit]
COc1ccc(CCNC(=O)c2cc(C(=O)c3cc(Cl)ccc3O)cn(CCc3ccc(OC)cc3)c2=O)cc1	0.631 µM [rising, partial curve, poor fit]	–
Cc1cc(Cl)c(S(=O)(=O)N2CCN(c3ccc(F)cc3)CC2)cc1OCC(N)=O	3.16 µM [rising, full curve]	5.01 µM [rising, partial curve]
Cc1cc(C)nc(SCc2nc3ncccn3c2Br)n1	–	17.8 µM [rising, partial curve, poor fit]
CC1CC(=S)Nc2ccccc2N1Cc1ccccc1 (stereo not given)	35.5 µM [rising, single point]	35.5 µM [rising, partial curve, poor fit]
O=C(/C=C/c1ccccc1)N1CCC(Cc2ccccc2)CC1	20 µM [rising, single point]	15.8 µM [rising, single point]
O=S(=O)(Nc1ccc(O)c(Sc2nc3ccccc3s2)c1)c1cccc2ccccc12	35.5 µM [falling, single point]	35.5 µM [falling, single point]
CSc1ncnc2sc(C)c(C)c12	0.00794 µM [rising, full curve]	–

SMILES	AC50 [1]	AC50 [2]
COc1ccc(S(=O)(=O)Oc2ccc3ccccc3c2)cc1	35.5 µM [rising, single point]	12.6 µM [rising, single point]
CCOc1cccc(OCCCOc2cccc3cccnc23)c1	11.2 µM [rising, single point]	5.62 µM [rising, partial curve, poor fit]
CCOC(=O)N1CCN(/C=C(\C#N)c2nc3ccccc3s2)CC1	35.5 µM [rising, single point]	35.5 µM [rising, single point]
COc1ccc(C=O)cc1COc1ccccc1F	–	0.0158 µM [rising, full curve, poor fit]
Cc1ccc(CN2CC(C(=O)Nc3nnc(SCc4c(Cl)cccc4Cl)s3)CC2=O)cc1 (stereo not given)	35.5 µM [rising, single point]	35.5 µM [rising, single point]
Cc1ccc(-c2cc(C(=O)NCc3ccccn3)c3ccccc3n2)cc1C	35.5 µM [rising, single point]	–
O=C(CSc1nc2ccccc2nc1Cc1ccc(F)cc1)Nc1ccc2c(c1)OCO2	0.0316 µM [falling, full curve, poor fit]	–
COc1ccc(-n2c3c(c(=O)[nH]c2=O)C(NC(C)=O)(C(F)(F)F)C(=O)N3)cc1 (stereo not given)	0.562 µM [falling, full curve, poor fit]	–
Clc1ccc(CSc2nnc([C@@H]3CCCN3)o2)cc1	0.00891 µM [rising, full curve, poor fit]	–
Clc1ccccc1-c1cc(NCc2ccccc2)ncn1	–	11.2 µM [falling, partial curve, poor fit]
O=C(O)CCC(=O)N1CCCC1C(=O)O (stereo not given)	–	0.00316 µM [falling, full curve, poor fit]
S=C(NCc1cccnc1)Nc1cccc2ccccc12	35.5 µM [rising, single point]	–
CC(=NCCc1c(C)[nH]c2ccc(C)cc12)C1=C(O)CC(c2ccccc2)CC1=O (stereo not given)	5.62 µM [rising, single point]	0.891 µM [falling, partial curve, poor fit]
COc1ccc2c(C)cc(SCc3c(C)noc3C)nc2c1	–	17.8 µM [rising, single point]
Cc1ccc(NC2(c3nnnn3-c3c(C)cccc3C)CCCCC2)cc1	35.5 µM [rising, single point]	–
O=C(Nc1nnc(S(=O)(=O)N2CCCCCC2)s1)c1ccc(Br)cc1	2.82 µM [rising, full curve]	–
COC(=O)c1ccc(NC(=S)N2CCN(Cc3ccccc3Cl)CC2)cc1	28.2 µM [falling, partial curve, poor fit]	–
Cc1ccc(S(=O)(=O)N(CC(=O)N/N=C/c2ccc(F)cc2)c2cccc3cccnc23)cc1	12.6 µM [falling, partial curve]	12.6 µM [falling, single point]

Sorted by molecular weight (ascending): 3 of the compounds above
SMILES	AC50 [1]	AC50 [2]
COc1ccc(C=O)cc1COc1ccccc1F	–	0.0158 µM [rising, full curve, poor fit]
S=C(NCc1cccnc1)Nc1cccc2ccccc12	35.5 µM [rising, single point]	–
Cc1ccc(S(=O)(=O)N(CC(=O)N/N=C/c2ccc(F)cc2)c2cccc3cccnc23)cc1	12.6 µM [falling, partial curve]	12.6 µM [falling, single point]
